Laboratory results from ChEMBL document CHEMBL4732263 (Bioorg Med Chem, 2021).
Values after ≈ are worked out from the molar mass of the structure shown.

Chains of the proteins cited; added tags and fusions are not shown. Lines headed by an entry give the natural chain unless they say otherwise; changes in a name come on top.
UniProt Q12809: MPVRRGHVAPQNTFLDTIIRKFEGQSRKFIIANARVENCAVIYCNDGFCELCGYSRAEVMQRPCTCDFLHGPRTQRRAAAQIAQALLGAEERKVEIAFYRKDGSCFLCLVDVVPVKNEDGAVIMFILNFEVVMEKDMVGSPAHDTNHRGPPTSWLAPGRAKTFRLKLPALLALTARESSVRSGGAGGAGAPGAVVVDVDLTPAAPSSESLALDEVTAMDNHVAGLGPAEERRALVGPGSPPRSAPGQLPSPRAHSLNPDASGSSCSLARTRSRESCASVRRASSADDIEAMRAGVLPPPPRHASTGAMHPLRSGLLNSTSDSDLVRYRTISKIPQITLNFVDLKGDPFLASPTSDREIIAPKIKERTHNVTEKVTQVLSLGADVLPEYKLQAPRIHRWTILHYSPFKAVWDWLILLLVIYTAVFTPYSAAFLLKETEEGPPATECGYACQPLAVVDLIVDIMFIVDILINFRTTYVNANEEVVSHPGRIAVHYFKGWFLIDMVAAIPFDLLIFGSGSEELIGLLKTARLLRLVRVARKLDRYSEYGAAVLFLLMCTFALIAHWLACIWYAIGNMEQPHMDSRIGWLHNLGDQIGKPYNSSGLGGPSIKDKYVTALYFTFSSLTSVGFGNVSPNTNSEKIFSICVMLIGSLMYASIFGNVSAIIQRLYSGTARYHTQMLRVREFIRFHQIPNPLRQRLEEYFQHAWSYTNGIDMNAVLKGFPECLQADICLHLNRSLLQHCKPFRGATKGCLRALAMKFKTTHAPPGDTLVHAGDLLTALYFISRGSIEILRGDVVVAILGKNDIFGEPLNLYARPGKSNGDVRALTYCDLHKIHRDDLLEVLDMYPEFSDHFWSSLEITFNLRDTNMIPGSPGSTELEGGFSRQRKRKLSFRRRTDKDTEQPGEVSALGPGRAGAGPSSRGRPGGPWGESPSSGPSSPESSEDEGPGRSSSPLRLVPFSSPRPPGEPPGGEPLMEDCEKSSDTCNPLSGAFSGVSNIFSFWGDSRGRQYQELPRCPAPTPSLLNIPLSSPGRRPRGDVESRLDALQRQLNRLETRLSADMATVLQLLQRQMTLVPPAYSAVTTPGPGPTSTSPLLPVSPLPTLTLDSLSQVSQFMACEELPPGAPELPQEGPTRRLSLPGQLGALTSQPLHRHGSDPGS

Tests used:
physchem [1] = conditions: buffer, pH 2
physchem [2] = conditions: buffer, pH 6.5
[3] = biological target: Voltage-gated inwardly rectifying potassium channel KCNH2 (Homo sapiens, UniProt Q12809)
physchem [4] = conditions: octanol/water, pH 7.4

**Q.** What does the source list for `N=C(N)NC(=O)c1nc(-c2cc3ccccc3o2)c(N)nc1N`?
**A.** solubility kinetic (physchem [1]): > 100 µg/mL; solubility kinetic (physchem [2]): 6.3 µg/mL (≈ 20.2 µM); IC50 [3]: 6.9 µM; logD (physchem [4]): 2.8
